According to PubChem BioAssay (NCATS):
Some of the results follow. Further columns of the screen follow, without active or inactive calls. The list favours compounds with an active or inconclusive main result. For part of these data: Potencies come from curve fits of mixed quality, noted in brackets.

Experiment: qHTS assay for small molecule agonists of retinoid X receptor alpha signaling (AID 588544)
Conditions: HEK293T RXRa-UAS-bla, beta-lactamase reporter, 18 h; 530 nm emission

For `CC(C)Nc1ccc(Nc2ccccc2)cc1`, which max response is on record?
Its max response is 50.3%.

With `COP(=O)(OC)OC=C(Cl)Cl` as the compound, how does the max response read?
Its max response is -5.01%.

Which max response does the source give for `C[C@H]1CC[C@@H]2[C@@H](C)[C@H]3[C@H](C[C@H]4[C@@H]5CC=C6CC(O[C@@H]7O[C@H](CO)[C@H](O)[C@H](O[C@@H]8O[C@H](CO)[C@@H](O)[C@H](O)[C@H]8O)[C@H]7O[C@H]7O[C@@H](C)[C@H](O)[C@@H](O)[C@H]7O)CC[C@]6(C)[C@H]5CC[C@]34C)N2C1` (stereo not given in full) here?
The max response was -52.7%.

Experiment: qHTS assay for small molecule antagonists of retinoid X receptor alpha signaling (AID 588546);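 further: cells stimulated with 9-cis-retinoic acid as agonist; on the % scale 0 is the no-effect control and ±100 the full control effect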
Conditions: HEK293T RXRa-UAS-bla, beta-lactamase ratio, antagonist mode; measured here: W530 green channel, cytotoxicity proxy
How it was run: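 Beta-lactamase reporter inhibition, read as CCF4 fluorescence ratio (ex 405, em 460/530 nm) after 2 h at RT. HEK293T UAS-bla cells, 2500/well, were stimulated with 9-cis-RA at 500 or 100 nM final alongside test compound for 18 h at 37 C.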

With `O=C(O)C(Cl)(Cl)Cl` as the compound, how does the max response read?
Its max response is -16.6%.

For `CC(C)Nc1ccc(Nc2ccccc2)cc1`, which max response is on record?
The max response was -11.3%.

For `COP(=O)(OC)OC=C(Cl)Cl`, which max response is on record?
The max response was -4.52%.

With `O=[N+]([O-])c1ccccc1` as the compound, how does the max response read?
Its max response is 1.65%.

Which max response does the source give for `Oc1ccc(Cl)c(Cl)c1Cl` here?
Its max response is -7.6%.

With `C[C@H]1CC[C@@H]2[C@@H](C)[C@H]3[C@H](C[C@H]4[C@@H]5CC=C6CC(O[C@@H]7O[C@H](CO)[C@H](O)[C@H](O[C@@H]8O[C@H](CO)[C@@H](O)[C@H](O)[C@H]8O)[C@H]7O[C@H]7O[C@@H](C)[C@H](O)[C@@H](O)[C@H]7O)CC[C@]6(C)[C@H]5CC[C@]34C)N2C1` (stereo not given in full) as the compound, how does the max response read?
The max response was -43.1%.

For `O=[N+]([O-])c1ccc2ccc3cccc4ccc1c2c34`, which max response is on record?
The max response was 34.3%.

With `ClC(Cl)(Cl)Cl` as the compound, how does the max response read?
Its max response is -6.87%.

With `C=CCCl` as the compound, how does the max response read?
Its max response is -8.43%.

Experiment: S16 Schwann cell PMP22 intronic element beta-lactamase assay (AID 624044)
Conditions: S16 rat Schwann cells, PMP22 element beta-lactamase FRET, 24 h; measured here: 460 nm blue channel
How it was run: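 Beta-lactamase reporter under a PMP22 intronic regulatory element in stable S16 rat Schwann cells; 24 h compound exposure. 460 nm blue signal normalized between DMSO (0%) and potassium clavulanate, with 535 nm FRET tracking viability; curves classed by r2 and response.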

With `CC(C)Nc1ccc(Nc2ccccc2)cc1` as the compound, how does the AC50 read?
Its AC50 is 0.00999 µM [falling, full curve, poor fit].

With `COP(=O)(OC)OC=C(Cl)Cl` as the compound, how does the AC50 read?
The AC50 was 15.8 µM [falling, partial curve].

With `C[C@H]1CC[C@@H]2[C@@H](C)[C@H]3[C@H](C[C@H]4[C@@H]5CC=C6CC(O[C@@H]7O[C@H](CO)[C@H](O)[C@H](O[C@@H]8O[C@H](CO)[C@@H](O)[C@H](O)[C@H]8O)[C@H]7O[C@H]7O[C@@H](C)[C@H](O)[C@@H](O)[C@H]7O)CC[C@]6(C)[C@H]5CC[C@]34C)N2C1` (stereo not given in full) as the compound, how does the AC50 read?
The AC50 was 7.94 µM [falling, full curve, poor fit].
